PubChem BioAssay AID504444 (National Center for Advancing Translational Sciences (NCATS), 2011)
The whole screen tested about 360,000 compounds, of which about 7,500 (2.1%) were called active. Inconclusive means that the source gave no clear call. Such entries were picked first, then a sample of the others. Calls follow the shape of the dose curve; as a rule, active = well fitted inhibition curve with a large enough effect; inconclusive = small, poorly fitted or top-dose-only effect, or effect the other way; inactive = flat fitted curve, though single readings scatter. Potencies beside an inconclusive call are fits to weak or partial responses and may not hold up.

experiment: Nrf2 qHTS screen for inhibitors; settings: A549 ARE-Fluc reporter, luciferase luminescence, 18-24 h; activity change, negative = inhibition: at 46 µM (top of the series); also: nearly all actives have a fitted effect of over 60% in size
Method in brief: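 Quantitative HTS in A549 cells stably bearing an antioxidant response element-firefly luciferase construct. Inhibition of Nrf2-driven transcription was scored by luminescence after 18-24 h of compound exposure at 37 °C.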
% is scaled to controls: 0 for no effect and ±100 for the full control effect; potency is read from the fitted curve at half-maximal effect.

SMILES | Potency | activity change, negative = inhibition
O=C(CCC1CCCN(C(=O)c2ccc3c(c2)OCCO3)C1)NCc1ccccc1F (configuration not stated) | inconclusive: 11.6 µM [activator, partial curve] | 
COc1cc(/C=C2\SC(=S)N(CCC(=O)N3CCN(C)CC3)C2=O)cc(OC)c1OC | inconclusive: 23.1 µM [activator, partial curve] | 
CN(C(=O)CCN1C(=O)/C(=C/c2ccccc2F)SC1=S)C1CCS(=O)(=O)C1 (configuration not stated) | inconclusive: 29.1 µM [activator, single point] | 
NS(=O)(=O)c1ccc(NC(=O)c2ccc(S(=O)(=O)N3CCCCCC3)cc2)cc1 | inconclusive: 29.1 µM [falling, single point] | 
Cc1ccc(NC(=O)CC2C(=O)N(Cc3ccccc3)C(=S)N2NC(=O)c2cccc(F)c2)c(C)c1 (configuration not stated) | inconclusive: 18.4 µM [falling, single point] | 
Cc1ccc(O)c(-c2cc(-c3cccc(Br)c3)n[nH]2)c1 | inconclusive: 20.6 µM [activator, single point] | 
COC(=O)c1cc(OC)c(OC)cc1NC(=O)C(C)Sc1ccc(C)cc1 (configuration not stated) | inconclusive: 16.4 µM [falling, single point] | 
CCOC(=O)c1cc(S(=O)(=O)Nc2cccc(OC)c2)cn1C | inconclusive: 14.6 µM [falling, partial curve] | 
O=C(Nc1cc(=O)[nH]c2nc(-c3ccccc3)nn12)c1ccccc1Cl | inconclusive: 20.6 µM [falling, partial curve, poor fit] | 
Cc1ccc2nc(/N=C(\N)NC(=O)N3c4ccccc4Sc4ccccc43)nc(C)c2c1 | inconclusive: 0.731 µM [falling, full curve, poor fit] | 
CC(C)=CCN1CCNC(=O)C1CC(=O)NCc1nc(C)c(C)s1 (configuration not stated) |  | inactive: 3.06%
S=c1[nH]nc(-c2ccc3ccccc3n2)n1-c1ccccc1 |  | inactive: -6.44%
COc1cc(NC(=O)CSCC(=O)Nc2cc(OC)cc(OC)c2)cc(OC)c1 |  | inactive: -1.52%
O=c1[nH]c(C2CCN(S(=O)(=O)c3ccccc3F)CC2)nc2c1nnn2Cc1ccc(F)cc1 | inconclusive: 29.1 µM [falling, single point] | 
CCn1c(O)c(N=NC(=O)Cc2csc(N3CCOCC3)n2)c2ccccc21 | inconclusive: 32.6 µM [falling, partial curve, poor fit] | 
Cc1cccc(NC(=O)CSCC(=O)Nc2ccc(S(=O)(=O)N3CCCCC3)cc2)c1 | inconclusive: 29.1 µM [falling, partial curve, poor fit] | 
CC(C)(C)c1cc(CCC(=O)N2CCCC2)cc(C(C)(C)C)c1O | inconclusive: 20.6 µM [falling, partial curve, poor fit] | 

Taken from above for reference:
SMILES | Potency | activity change, negative = inhibition
COc1cc(/C=C2\SC(=S)N(CCC(=O)N3CCN(C)CC3)C2=O)cc(OC)c1OC | inconclusive: 23.1 µM [activator, partial curve] | 
CN(C(=O)CCN1C(=O)/C(=C/c2ccccc2F)SC1=S)C1CCS(=O)(=O)C1 (configuration not stated) | inconclusive: 29.1 µM [activator, single point] | 
NS(=O)(=O)c1ccc(NC(=O)c2ccc(S(=O)(=O)N3CCCCCC3)cc2)cc1 | inconclusive: 29.1 µM [falling, single point] | 
Cc1ccc(NC(=O)CC2C(=O)N(Cc3ccccc3)C(=S)N2NC(=O)c2cccc(F)c2)c(C)c1 (configuration not stated) | inconclusive: 18.4 µM [falling, single point] | 
Cc1ccc(O)c(-c2cc(-c3cccc(Br)c3)n[nH]2)c1 | inconclusive: 20.6 µM [activator, single point] | 
